In PubChem BioAssay AID651702 (NMMLSC, 2012):
Among all 360,000 compounds or so, about 2,400 (0.67%) were called active. This list was built around the results that the source calls inconclusive (neither active nor inactive); the mix of calls is not that of the screen.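 Rule for the calls: active = inhibition above about 55% (limit read from the data); inconclusive = no clear call, values can overlap the other calls; inactive = the rest.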

experiment: LAMP-1 surface exposure blockers, TALL-104 cells – cell-based, flow cytometry, MLPCN library, primary screen (AID 651702); conditions: TALL-104 LAMP-1 surface exposure, cells stimulated with thapsigargin and PMA; at 10 µM, stronger effect = higher value

Row | SMILES | inhibition
1 | C/C=C/Cn1c(SCc2ccc(C)cc2)nc2c1c(=O)[nH]c(=O)n2C | inconclusive
2 | O=C(NCc1cccc(Cl)c1)c1ccc(CS(=O)Cc2ccccc2Cl)o1 (centres undefined) | inconclusive
3 | COc1ccc([C@@H]2CC(=O)[C@@H]3CN(S(=O)(=O)c4ccc(C)cc4)[C@H](c4ccccc4)C[C@@H]3N2S(=O)(=O)c2ccccc2)cc1 | inconclusive
4 | CN1CCN(P(=O)(c2ccccc2)c2nc3ccccc3s2)CC1 (centres undefined) | inactive: -1.5%
5 | Cn1c(C(=O)N[C@@H](Cc2ccccc2)C(=O)NCCC(=O)O)cc2cc(Cl)ccc21 | inconclusive
6 | Cc1cc[n+](CCc2ccccc2)cc1C | inconclusive
7 | CN(C)S(=O)(=O)c1cccc(NC(=O)COC(=O)/C=C/c2ccc3c(c2)OCO3)c1 | inconclusive
8 | O=C(c1cc(S(=O)(=O)N2CCOCC2)c(Cl)cc1Cl)N1CCN(S(=O)(=O)c2cccc(F)c2)CC1 | active: 55.5%
9 | C=CCn1c(COc2ccccc2)nnc1SCC(=O)Nc1ccc2c(c1)OCCO2 | inconclusive
10 | CCOc1ccc(-n2ccnc2SCC(=O)Nc2nnc(CC)s2)cc1 | inconclusive
11 | Cc1cc2c(cc1C)CSC(c1c(O)ccc3ccccc13)SC2 | active: 75.9%
12 | CO/N=C/CC(=O)c1ccc(OC)cc1 | inconclusive
13 | O=C(c1cc(F)ccc1F)C1CCCN(C(=O)CSc2ccccn2)C1 (centres undefined) | inconclusive
14 | CC(OC(=O)c1ccc2c(=O)n3c(nc2c1)CCC3)C(=O)NC1CCCCC1C (centres undefined) | inactive: 3.6%
15 | CCOc1ccc2c(c1)-c1c(ssc1=S)C(C)(C)N2C(=O)CSC1=NCCS1 | inactive: -5.2%
16 | Cc1cccc(S(=O)(=O)NC(=O)C2(C)CCN2C(=O)CC2CCCCC2)c1 (centres undefined) | inconclusive
17 | O=C(Nc1ccc(N2CCCC2)cc1)c1cc(Cl)ccc1Cl | inactive: -4.7%
18 | O=C(O)c1cc(=O)[nH]c2ccc(S(=O)(=O)Nc3ccc(F)cc3)cc12 | inconclusive
19 | Cc1ccc(C(=O)Nc2nc(-c3ccccn3)cs2)s1 | inactive: 1.8%
20 | Cc1ccccc1OCCOC(=O)c1c(-c2ccccc2)noc1C | active: 94.5%
21 | CS(=O)(=O)O/N=C1\CCCCC1c1ccc([N+](=O)[O-])cc1[N+](=O)[O-] (centres undefined) | inconclusive
22 | CCOC(=O)C1=CCC(c2ccc(C)cc2)N(S(=O)(=O)c2ccc(C)cc2)C1 (centres undefined) | inactive: 15.5%
23 | COc1cc(CNc2ncnc3c2ncn3[C@H]2CN(Cc3cc(OC)c(OC)c(OC)c3)C[C@@H](CO)O2)cc(OC)c1OC | inactive: -7.1%
24 | Cc1cc(=O)oc2cc(OCC(=O)Nc3ccccc3C(N)=O)c(Cl)cc12 | inactive: -0.6%
25 | O=C(CNC(=O)c1ccc(F)cc1)NCc1ccc(S(=O)(=O)N2CCOCC2)cc1 | inactive: 0.7%
26 | COc1cccc(-c2noc(CCCC(=O)N3CCOCC3)n2)c1 | inconclusive
27 | COc1cccc(C(O)c2nc(/C=C/c3ccccc3)cs2)c1 (centres undefined) | inactive: -7.2%
28 | Cc1ccc(CN(C)C(=O)CCNC(=O)c2ccc(Cl)cc2)o1 | inconclusive
29 | O=C(Nc1nnc(S(=O)(=O)Cc2ccc(F)cc2)s1)c1ccccc1F | inconclusive

Some of the entries above in a different format:
Row,SMILES,inhibition
5,Cn1c(C(=O)N[C@@H](Cc2ccccc2)C(=O)NCCC(=O)O)cc2cc(Cl)ccc21,inconclusive
7,CN(C)S(=O)(=O)c1cccc(NC(=O)COC(=O)/C=C/c2ccc3c(c2)OCO3)c1,inconclusive
13,O=C(c1cc(F)ccc1F)C1CCCN(C(=O)CSc2ccccn2)C1 (centres undefined),inconclusive
15,CCOc1ccc2c(c1)-c1c(ssc1=S)C(C)(C)N2C(=O)CSC1=NCCS1,inactive: -5.2%
25,O=C(CNC(=O)c1ccc(F)cc1)NCc1ccc(S(=O)(=O)N2CCOCC2)cc1,inactive: 0.7%
27,COc1cccc(C(O)c2nc(/C=C/c3ccccc3)cs2)c1 (centres undefined),inactive: -7.2%
